Where a sequence shows no end group, the ends are not given.

This series in a line: general procedure: Fmoc solid-phase peptide synthesis; Tentagel S RAM resin (0.22–[…]); DIC/Oxyma. Particulars: whole synthesis, TFA salt.
Take (*)KkLLKLLKLLL: the isolated yield is 3.9%.

As for (*)KkLlKLLKLLL, the isolated yield was 6.1%.

In the case of (*)KkllKLLKLLL, the isolated yield is given as 7.7%.

Consider (*)RRLLRLLRLLL, for which the isolated yield worked out at 7.3%.

As to (*)kKLLKLLKLLl, the isolated yield was 5.8%.

For (*)kkLLKLLKLLL, the isolated yield amounted to 0.8%.

For (*)kkLLKLLKLLl, the isolated yield was 4.6%.

With (KKLLKLLKLLL)2, the isolated yield is reported as 38.3%.

With KKIIKIIKIII, the isolated yield was 31.6%.

On to KKLLKLLKLLL, for which the isolated yield turned out to be 58.0%.

KKLLKllKLLL: the isolated yield was determined as 44.4%.

As to KKLLkllKLLL, the isolated yield amounted to 57.5%.

As to KKLLkllkLLL, the isolated yield is on record as 42.1%.

On to KKLlkLLkLLl, for which the isolated yield is on record as 66.2%.

For KKLlkLLklLL, the isolated yield amounted to 18.0%.

Turning to KKLlkllkLLL, the isolated yield came to 53.4%.

Take KKlLkLlKlLL: the isolated yield turned out to be 38.8%.

Turning to KKllKLLklLL, the isolated yield was 46.3%.

Turning to KKllKLlKLlL, the isolated yield was 46.9%.

In the case of KKllKllKLLL, the isolated yield was 37.9%.

In the case of KKllKllKlLL, the isolated yield amounted to 34.9%.

For the substance KKllKllKlll, the isolated yield was 44.6%.

For the substance KkLLKLLKLLL, the isolated yield is given as 47.7%.

As for KkLLkLLKLLL, the isolated yield is reported as 45.1%.

Regarding KkLlKLLKLLL, the isolated yield worked out at 38.3%.

In the case of KkLlKlLkLlL, the isolated yield turned out to be 32.1%.

In the case of KklLKLLKllL, the isolated yield is recorded as 26.1%.

Regarding KklLKlLKlLL, the isolated yield was determined as 65.7%.

As to KkllKLLKLLL, the isolated yield stood at 42.2%.

For the substance KkllKLlKLLL, the isolated yield turned out to be 35.4%.

For the substance KkllKlLKLLL, the isolated yield amounted to 30.1%.

For the substance KkllKllKLLL, the isolated yield amounted to 49.2%.

On to RRIIRIIRIII, for which the isolated yield was 6.5%.

With RRLLRLLRLLL, the isolated yield is reported as 27.5%.

Turning to kKLLKLLKLLl, the isolated yield was 44.2%.

kKLLkllKLLl: the isolated yield amounted to 41.0%.

kKlLkLlKlLl: the isolated yield was determined as 40.8%.

Take kkLLKLLKLLL: the isolated yield came out at 51.0%.

On to kkLLKLLKLLl, for which the isolated yield was 54.5%.

Consider kkLLKLLKLll, for which the isolated yield was determined as 32.7%.

Take kkLLkLLKLLL: the isolated yield is 45.0%.

For the substance kkLLkLLKLLl, the isolated yield came to 47.7%.

For kkLLkLLKLll, the isolated yield was found to be 47.3%.

kkLLkLLkLLL: the isolated yield is 70.9%.

For kkLLkLLkLLl, the isolated yield is listed as 48.3%.

kkllkllklll: the isolated yield was found to be 24.1%.

For the origin of these results see publication PMC10258794 (Journal of Medicinal Chemistry, 2023).
